PubChem BioAssay AID1053208, Peter MacCallum Cancer Centre, 2014
Aim: 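Find knock-downs that sensitise mouse osteosarcoma cells to doxorubicin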 (primary screen). Cell system: mouse osteosarcoma cells, early-passage culture from an engineered mouse model of fibroblastic bone tumour. Reagent: siRNA pool against mouse genes, 40 nM. Timing: about 120 h (48 h before drug, then 72 h with drug). Treatment: doxorubicin 100 nM for 72 h, roughly 30-40% inhibitory dose. Measurement: 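Viability read as ATP luminescence after 72 h of 100 nM doxorubicin or none, duplicate wells averaged, scaled to non-targeting siRNA, then expressed as robust z-scores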. Scale: viability z-score with doxorubicin: higher = more viable cells under doxorubicin; viability z-score without drug: higher = more viable cells with knock-down alone. Hit rule: 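Called active if knock-down leaves viability unchanged without drug (z within -2 to 2) but lowers it with doxorubicin (z at or under -2)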.
In all, the deposit lists about 17,000 reagents; shown is a random part of them. 788 of them (4.7%) were called active. 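Calls rest on z-score classes alone; an extra cut-off of viability at most 70% of control was not applied to them.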 The numbers tell different reagents against one gene apart. Not all columns of the deposit are shown.

Which result is listed for Smarca4?
combined z-score class: no change with or without drug; viability z-score with doxorubicin: -0.67; viability z-score without drug: -0.67; Outcome: inactive

What is on record for Gucy1a1?
combined z-score class: no change with or without drug; viability z-score with doxorubicin: 1.12; viability z-score without drug: -0.34; Outcome: inactive

What is on record for Chil4?
combined z-score class: no change with or without drug; viability z-score with doxorubicin: -0.67; viability z-score without drug: 0; Outcome: inactive

What did the screen give for Asic4?
combined z-score class: no change with or without drug; viability z-score with doxorubicin: -0.34; viability z-score without drug: 0; Outcome: inactive

For Or5t5, what does the deposit list?
combined z-score class: no change with or without drug; viability z-score with doxorubicin: 0.34; viability z-score without drug: 1.52; Outcome: inactive

Which result is listed for Irx1?
combined z-score class: no change with or without drug; viability z-score with doxorubicin: 0; viability z-score without drug: -0.51; Outcome: inactive

Which result is listed for Ppm1k?
combined z-score class: no change with or without drug; viability z-score with doxorubicin: 1.35; viability z-score without drug: -1.18; Outcome: inactive

With Ube2e2, what was measured?
combined z-score class: no change with or without drug; viability z-score with doxorubicin: 1.46; viability z-score without drug: 0.17; Outcome: inactive

How did the screen score Tmco1?
combined z-score class: no change with or without drug; viability z-score with doxorubicin: -0.34; viability z-score without drug: 1.52; Outcome: inactive

Which result is listed for Csnk2a2?
combined z-score class: no change with or without drug; viability z-score with doxorubicin: 0.45; viability z-score without drug: 1.52; Outcome: inactive

Which result is listed for Creb5 #1?
combined z-score class: no change with or without drug; viability z-score with doxorubicin: 0.11; viability z-score without drug: -0.17; Outcome: inactive

For Creb5 #2, what was measured?
combined z-score class: no change with or without drug; viability z-score with doxorubicin: -0.67; viability z-score without drug: -0.17; Outcome: inactive

With Sf3b4, what does the deposit list?
combined z-score class: low cell count with doxorubicin only; viability z-score with doxorubicin: -3.48; viability z-score without drug: 0; Outcome: active

For Ssc5d, how do the results read?
combined z-score class: no change with or without drug; viability z-score with doxorubicin: -0.67; viability z-score without drug: 0.34; Outcome: inactive

For Ldlrad4, what was measured?
combined z-score class: no change with or without drug; viability z-score with doxorubicin: -0.11; viability z-score without drug: 1.52; Outcome: inactive

With Tas2r124, how do the results read?
combined z-score class: no change with or without drug; viability z-score with doxorubicin: 0.45; viability z-score without drug: 0.51; Outcome: inactive

With Ubox5, how do the results read?
combined z-score class: no change with or without drug; viability z-score with doxorubicin: -0.67; viability z-score without drug: 1.52; Outcome: inactive

With Ndst2, what was measured?
combined z-score class: no change with or without drug; viability z-score with doxorubicin: -1.12; viability z-score without drug: -0.84; Outcome: inactive

What did the screen give for Tubd1?
combined z-score class: no change with or without drug; viability z-score with doxorubicin: 1.8; viability z-score without drug: 0.51; Outcome: inactive

Which result is listed for Gpx8?
combined z-score class: no change with or without drug; viability z-score with doxorubicin: -0.67; viability z-score without drug: 0.67; Outcome: inactive

For Wdr74, what does the deposit list?
combined z-score class: no change with or without drug; viability z-score with doxorubicin: 0; viability z-score without drug: -1.18; Outcome: inactive

For Renbp, how do the results read?
combined z-score class: no change with or without drug; viability z-score with doxorubicin: 0.34; viability z-score without drug: -0.34; Outcome: inactive

For Tmem88, how do the results read?
combined z-score class: no change with or without drug; viability z-score with doxorubicin: 0.45; viability z-score without drug: 0.51; Outcome: inactive

How did the screen score Sirt5?
combined z-score class: no change with or without drug; viability z-score with doxorubicin: -0.45; viability z-score without drug: 0; Outcome: inactive

For Arrb1, what was measured?
combined z-score class: no change with or without drug; viability z-score with doxorubicin: -0.22; viability z-score without drug: 1.18; Outcome: inactive

What is on record for Rnf216?
combined z-score class: no change with or without drug; viability z-score with doxorubicin: -0.45; viability z-score without drug: -0.51; Outcome: inactive

What is on record for Gigyf2?
combined z-score class: no change with or without drug; viability z-score with doxorubicin: -1.12; viability z-score without drug: 0.34; Outcome: inactive

With Tcl1b1, what does the deposit list?
combined z-score class: low cell count without drug only; viability z-score with doxorubicin: -1.46; viability z-score without drug: -2.19; Outcome: inactive

What did the screen give for Arhgap23?
combined z-score class: no change with or without drug; viability z-score with doxorubicin: -1.46; viability z-score without drug: -0.51; Outcome: inactive

How did the screen score Kcnab2?
combined z-score class: no change with or without drug; viability z-score with doxorubicin: 0.56; viability z-score without drug: -0.17; Outcome: inactive

What did the screen give for Spaca7b?
combined z-score class: no change with or without drug; viability z-score with doxorubicin: -1.46; viability z-score without drug: -0.17; Outcome: inactive

What is on record for Plin5?
combined z-score class: no change with or without drug; viability z-score with doxorubicin: -1.57; viability z-score without drug: 0.84; Outcome: inactive

For H3c15, how do the results read?
combined z-score class: no change with or without drug; viability z-score with doxorubicin: -0.22; viability z-score without drug: -1.85; Outcome: inactive

What is on record for Aldh18a1?
combined z-score class: no change with or without drug; viability z-score with doxorubicin: 0.9; viability z-score without drug: 1.01; Outcome: inactive

With Ankrd33, what does the deposit list?
combined z-score class: no change with or without drug; viability z-score with doxorubicin: -1.12; viability z-score without drug: 0.51; Outcome: inactive

How did the screen score Zfp35?
combined z-score class: no change with or without drug; viability z-score with doxorubicin: 0.45; viability z-score without drug: 0.51; Outcome: inactive

6 entries from above, set out differently:
target	reagent no.	combined z-score class	viability z-score with doxorubicin	viability z-score without drug	Outcome
Irx1	1	no change with or without drug	0	-0.51	inactive
Ppm1k	1	no change with or without drug	1.35	-1.18	inactive
Ube2e2	1	no change with or without drug	1.46	0.17	inactive
Tmco1	1	no change with or without drug	-0.34	1.52	inactive
Csnk2a2	1	no change with or without drug	0.45	1.52	inactive
Creb5	1	no change with or without drug	0.11	-0.17	inactive
